Results from article PMC7819943, “Rice protein-binding microarrays: a tool to detect cis-acting elements near promoter regions in rice”.
The other results are listed elsewhere or left out.

Chains of the proteins cited; added tags and fusions are not shown.
UniProt Q0JBA9, entry or part of it: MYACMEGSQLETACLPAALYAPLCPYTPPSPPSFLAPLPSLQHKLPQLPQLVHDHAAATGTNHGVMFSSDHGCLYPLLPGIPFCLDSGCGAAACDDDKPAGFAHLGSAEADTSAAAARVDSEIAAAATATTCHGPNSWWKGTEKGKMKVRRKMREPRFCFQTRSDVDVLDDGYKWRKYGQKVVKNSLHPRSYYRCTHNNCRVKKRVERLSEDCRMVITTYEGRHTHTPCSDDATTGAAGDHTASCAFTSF

Each sequence was assayed against OsWRKY34 (Oryza sativa, UniProt Q0JBA9 1-250) (assay: protein-binding microarray (RPBM); PBS, 2% BSA, 51.3 ng/ul salmon testes DNA, 50 uM zinc acetate, 200 nM TF, 25 C, 1 h; high values mean tight binding). Conditions: protein: recombinant; tags: N-terminal polyhistidine and DsRed monomer fusion (pET32a); label: CyDye5-dUTP incorporated in the synthesized complementary strand; 3' TTTTT single-stranded linker to array surface; dsDNA, one strand shown.
Summary of the method: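 Transcription factors were each fused at the N-terminus to a polyhistidine tag plus DsRed and expressed in E. coli BL21-CodonPlus before Ni–NTA purification. Binding to a double-stranded custom Agilent array was carried out with 200 nM protein at 25 °C for 1 h in PBS, 2% BSA, salmon testes DNA and 50 µM zinc acetate. The binding signal is per-feature fluorescence intensity, in arbitrary units, on an Axon 4000B scanner.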

Sequence	binding signal
ATTTCACCACCACCGCCACGGCCTCTGCCTCTCGCTCTCTCGGAGTCACCTAGTGCAG	8260 fluorescence intensity (a.u.)
GCTTTTTCCAAATATTTGTGAATTTGGTGTTTATTTATTCCGGAGTCACCTAGTGCAG	10400 fluorescence intensity (a.u.)
CGTCACGATTAATTCTGCTATGCTTCTCGTCCTTCTTCCGCGGAGTCACCTAGTGCAG	8330 fluorescence intensity (a.u.)
GTAGTGTATAACTACGACGCATTCCTTTCGCATGTACCCACGGAGTCACCTAGTGCAG	8540 fluorescence intensity (a.u.)
ACACGTTTTGGAGTTTTAACATTAGACCATTTTAGTTTTTCGGAGTCACCTAGTGCAG	10100 fluorescence intensity (a.u.)
TTGTTTATCGTTTTCTTGTTATTTTATGGATTTTATTGAACGGAGTCACCTAGTGCAG	9370 fluorescence intensity (a.u.)
ACACATGCCTGAACAAATGTCACGACCTCTCTCTCTCTCTCGGAGTCACCTAGTGCAG	9980 fluorescence intensity (a.u.)
GAAAATTTCCACTGCGATCCTCTTCAACATCTTCGTTTCCCGGAGTCACCTAGTGCAG	8160 fluorescence intensity (a.u.)
ACCTGTATTCCCGCACACGAGCTGACTTTGCATTTATTTACGGAGTCACCTAGTGCAG	16200 fluorescence intensity (a.u.)
TCTGCGCGCTCTCCAGCGTCGCCCTCGCCAGGACGGCCGGCGGAGTCACCTAGTGCAG	8710 fluorescence intensity (a.u.)
TCTTCTGAAGTTAGTACTACCCCACCACAGCACCACTTGCCGGAGTCACCTAGTGCAG	8550 fluorescence intensity (a.u.)
CCCGAATCAAACAAACAACACATAACTCTTTCGTTTGATCCGGAGTCACCTAGTGCAG	8420 fluorescence intensity (a.u.)
TACCACTTCCTCGCATTTTGGTTTGTTTTGTTATAGAAGACGGAGTCACCTAGTGCAG	11500 fluorescence intensity (a.u.)
CCCGTCTCCATTTCTTTTGTCTCTCTCTCGCTCTTCAAATCGGAGTCACCTAGTGCAG	13400 fluorescence intensity (a.u.)
CACTTTTTCATTCATAGGATGTTACATCAAGATCTGTGTTCGGAGTCACCTAGTGCAG	8100 fluorescence intensity (a.u.)
TTTCCATTTCTTGCCGTTTTCTTCCACATTCTTCTCTGCTCGGAGTCACCTAGTGCAG	15000 fluorescence intensity (a.u.)
ATCTTTTGCTGTTGTAATAGAACTAACACACTCTTTCATCCGGAGTCACCTAGTGCAG	8410 fluorescence intensity (a.u.)
TCCAATACCACCTCCTTCGCTTGCATGATTGCCTCCAAAACGGAGTCACCTAGTGCAG	9650 fluorescence intensity (a.u.)
TGACAGCGGTAGATGTGGGTGGTGGTGGGAGGGGAGGATGCGGAGTCACCTAGTGCAG	16200 fluorescence intensity (a.u.)
GGCGGTGGTGGTGGAGGAGGAGCGGGACGCGCGCGCCGCGCGGAGTCACCTAGTGCAG	12000 fluorescence intensity (a.u.)
TTGCTCTTCCATTCTTTTGCCCTTCACTCCTCTCTCATCTCGGAGTCACCTAGTGCAG	10700 fluorescence intensity (a.u.)

A portion from the list above, as a working copy:
Sequence	binding signal
CACTTTTTCATTCATAGGATGTTACATCAAGATCTGTGTTCGGAGTCACCTAGTGCAG	8100 fluorescence intensity (a.u.)
TTTCCATTTCTTGCCGTTTTCTTCCACATTCTTCTCTGCTCGGAGTCACCTAGTGCAG	15000 fluorescence intensity (a.u.)
ATCTTTTGCTGTTGTAATAGAACTAACACACTCTTTCATCCGGAGTCACCTAGTGCAG	8410 fluorescence intensity (a.u.)
TCCAATACCACCTCCTTCGCTTGCATGATTGCCTCCAAAACGGAGTCACCTAGTGCAG	9650 fluorescence intensity (a.u.)

An excerpt of these results, in CSV form.
Sequence,binding signal
TTTCCATTTCTTGCCGTTTTCTTCCACATTCTTCTCTGCTCGGAGTCACCTAGTGCAG,15000 fluorescence intensity (a.u.)
ATCTTTTGCTGTTGTAATAGAACTAACACACTCTTTCATCCGGAGTCACCTAGTGCAG,8410 fluorescence intensity (a.u.)

(further entries)

Sequence	binding signal
TGTAGTATTTTTCCCCGACATTTACATATTGACTTTTCGACGGAGTCACCTAGTGCAG	8940 fluorescence intensity (a.u.)
AAACTGATACCTATTTTCCTTCACATAAGTGCCGCCTGTTCGGAGTCACCTAGTGCAG	8840 fluorescence intensity (a.u.)
ACCCCGGTGTTGCCACCTAACCCATCGATCACCTACTGCCCGGAGTCACCTAGTGCAG	8060 fluorescence intensity (a.u.)
GGGAATGATACGCGTGGGCCCCACCATTTTTTATTAATTTCGGAGTCACCTAGTGCAG	8890 fluorescence intensity (a.u.)
TCCACTGGGAGATGTCTTTGTATTATTGACCGAGCTTGTCCGGAGTCACCTAGTGCAG	8830 fluorescence intensity (a.u.)
ATTGCTCCATATGCTTCCTTTCTTCCGCTAGGACCGCTACCGGAGTCACCTAGTGCAG	11500 fluorescence intensity (a.u.)
TGGTGGCGTCTGTATTGGGTTTCTTTCTCCAAGTTATATTCGGAGTCACCTAGTGCAG	9710 fluorescence intensity (a.u.)
CGAAAGATTTTTTCTTATCTCTCACTCGATTTTCTCACTCCGGAGTCACCTAGTGCAG	8660 fluorescence intensity (a.u.)
TATCCTTTTGCATTAATTATTGTTACTGATTTTTCTCGTCCGGAGTCACCTAGTGCAG	10000 fluorescence intensity (a.u.)
ATCTGTGTGTATGTTTGTGGGTTTCTGTCCATTGAGATATCGGAGTCACCTAGTGCAG	12100 fluorescence intensity (a.u.)
GCTCCTCGTCGCCACCGATCCCCGCCGCCGGCTTGCCTCACGGAGTCACCTAGTGCAG	9340 fluorescence intensity (a.u.)
AAGAGGACCAAAACCAACCCCATCGCCCGAGAGCCCCAAACGGAGTCACCTAGTGCAG	8150 fluorescence intensity (a.u.)
ATCATGCATGATATAGTGCAGTACCCTTTTTTTTGTGTATCGGAGTCACCTAGTGCAG	9960 fluorescence intensity (a.u.)
GTGGAGGCGGAAGAGTGAGCGCGGGAGGAGGAGGGGAGGGCGGAGTCACCTAGTGCAG	11900 fluorescence intensity (a.u.)
TCCTGCCTCCTCCAAAATTTTCTTCTGTTCATCCATTTTGCGGAGTCACCTAGTGCAG	10200 fluorescence intensity (a.u.)
ATCTTCTGATATTCATATACCATGTTCCTACACTTATGACCGGAGTCACCTAGTGCAG	8290 fluorescence intensity (a.u.)
GTGGGCTTGTCATTTGTCAACACTGCAGTACAGCACCGTTCGGAGTCACCTAGTGCAG	9120 fluorescence intensity (a.u.)
TGGATGGAGGTCGGGGATGACAGGTGGGGACCTGTCGGGGCGGAGTCACCTAGTGCAG	11000 fluorescence intensity (a.u.)
ATTGCCATCTGATCTGATCCTTTATACAGCTATATACCTCCGGAGTCACCTAGTGCAG	10700 fluorescence intensity (a.u.)
GTGGGGTTGGAGGAGGGAGGGAGCTAGCTATAGTTGCTAGCGGAGTCACCTAGTGCAG	9980 fluorescence intensity (a.u.)
TTTTTATATACTTGCCAGGCTTTTCTTGTAGTAAGTTCCTCGGAGTCACCTAGTGCAG	8020 fluorescence intensity (a.u.)

Sequence	binding signal
TTATTAATTGTTACATTTTCTTTGTTTATATATACGCACACGGAGTCACCTAGTGCAG	9100 fluorescence intensity (a.u.)
CACACAGCGCAGTCGCTCTCCCTCGCCTCGCTCACCTGCGCGGAGTCACCTAGTGCAG	10300 fluorescence intensity (a.u.)
TCTGTCTTGCTGTTCCCTCGATCTTGCACACACCAAAGTTCGGAGTCACCTAGTGCAG	8490 fluorescence intensity (a.u.)
AGCACTAGTTCACCACTTGATGGCTCAAGCACACTACATACGGAGTCACCTAGTGCAG	8340 fluorescence intensity (a.u.)
GCAAATATTTAATTAATCACACGTTAATGTACTGCTTCGTCGGAGTCACCTAGTGCAG	10200 fluorescence intensity (a.u.)
TGCTCGGCCTCGTCGTGTCCGCTCTCGTCCCTGCCCTCCGCGGAGTCACCTAGTGCAG	9720 fluorescence intensity (a.u.)
GCCTTGCCGTGAAGCTTCGAAATTTAACTCTTTCCCGCGTCGGAGTCACCTAGTGCAG	8940 fluorescence intensity (a.u.)
AATTCAGCTTTGTCAAACATTACCTAATTTCATATATCTACGGAGTCACCTAGTGCAG	8330 fluorescence intensity (a.u.)
GGATAGACATGCTAACTATTCTCTTACACGAGTATTACATCGGAGTCACCTAGTGCAG	8580 fluorescence intensity (a.u.)
ATCCTGTCTCCGAACTCCCTACACTTGTTGTTTTCATCTTCGGAGTCACCTAGTGCAG	12000 fluorescence intensity (a.u.)
GTAGGGGAGGGGTTAGCGCTAGGGAACGCGATCGAGCACCCGGAGTCACCTAGTGCAG	11900 fluorescence intensity (a.u.)
CTCGTATAGGAGTAGTGTCCAGTTTTAGCTCCATTTTTTTCGGAGTCACCTAGTGCAG	8040 fluorescence intensity (a.u.)
GGGAGGGAGAGCTTGTAGACACGGCCGTTGTTGCAGGTGACGGAGTCACCTAGTGCAG	14200 fluorescence intensity (a.u.)
GAATCTAGATAACTCCATGTTCATATTCGTGTTGTTTTTTCGGAGTCACCTAGTGCAG	12100 fluorescence intensity (a.u.)
CTTTCAGTCACTTTTCCACTGGCTTACGAGTTCTAACAACCGGAGTCACCTAGTGCAG	9310 fluorescence intensity (a.u.)
GTAATCCTCAATTTGGGCCGCATTCTTGTTAGCAAAGACCCGGAGTCACCTAGTGCAG	8210 fluorescence intensity (a.u.)
CGACTGCATGGCGCGGTTCGCATGTAACATCTTCTACCTACGGAGTCACCTAGTGCAG	8280 fluorescence intensity (a.u.)
TGTGTGTCTAGTTAGGGCTACTTCTACTGCTGCTTCTCCTCGGAGTCACCTAGTGCAG	8780 fluorescence intensity (a.u.)
CCTTCCCCGTCGCGCTCTCCTTGGCGTCGGACATCTTCTCCGGAGTCACCTAGTGCAG	8780 fluorescence intensity (a.u.)
CACCTCAACCTGTCCAGCAATGCTTTCACCGGCGATGTGCCGGAGTCACCTAGTGCAG	8590 fluorescence intensity (a.u.)
CACGAAAGCTGCCACGCTTGTTGTGCTCTGACTTCTTCTTCGGAGTCACCTAGTGCAG	8080 fluorescence intensity (a.u.)

Sequence	binding signal
TCCGTGCCTAACTTTGATCATCCGTCTTATTTGAAACTTTCGGAGTCACCTAGTGCAG	9110 fluorescence intensity (a.u.)
ATTTGCCCATTTGGACCTGTTTAGTTGTAAAAAATTTTATCGGAGTCACCTAGTGCAG	10300 fluorescence intensity (a.u.)
TAGCTCCGCCCCTGGCCGTGAAATCGTGGGGAGATTTTCTCGGAGTCACCTAGTGCAG	8780 fluorescence intensity (a.u.)
TCACCCTGCTTTTTTCCATGGTTAGTCATCGCTGATGGCACGGAGTCACCTAGTGCAG	8160 fluorescence intensity (a.u.)
ATCACACCTTGATCAATCCAAAGAAGCTTACCTCTCATTTCGGAGTCACCTAGTGCAG	8380 fluorescence intensity (a.u.)
AACTAGTGCACAACTACACATCAGCTTCAGTCTGCTCACTCGGAGTCACCTAGTGCAG	10400 fluorescence intensity (a.u.)
CCCCACGAGAGCCAATCCTGACCGTCCAATCCGCGGCGTCCGGAGTCACCTAGTGCAG	9000 fluorescence intensity (a.u.)
ATCCTGCTAAGCTCTCCCGGGTTGGAGTCTTCTTCCATTTCGGAGTCACCTAGTGCAG	9050 fluorescence intensity (a.u.)
TACATTAACCTCTGCTTTCTGCGACACGCCGACACCTCCTCGGAGTCACCTAGTGCAG	8580 fluorescence intensity (a.u.)
ATACTGTATTCTTACGTTTGACCTGAATGGTCAGCCTCCCCGGAGTCACCTAGTGCAG	8780 fluorescence intensity (a.u.)
GTGGGTTTGGTTGGTAGTAAGTTGTTGGTTAGGGCCTCCCCGGAGTCACCTAGTGCAG	8580 fluorescence intensity (a.u.)
CAAATGGCCCACCTGTCCTAGCTTGGCCCGGCCCGGGCACCGGAGTCACCTAGTGCAG	8680 fluorescence intensity (a.u.)
CTTCTCATCCCCTCCGGCCCATCCACCTCGCTTCGCTAGCCGGAGTCACCTAGTGCAG	9180 fluorescence intensity (a.u.)
GAATCTGCTTCTCATTCTTTTTTTCTTGCTGATCATCATGCGGAGTCACCTAGTGCAG	10200 fluorescence intensity (a.u.)
TCCTTTTCCTACTTCCCTTGGTAACTTGACAAAATTATCTCGGAGTCACCTAGTGCAG	9520 fluorescence intensity (a.u.)
GCCATAATTACGCAGGCCGCCATCGTCGTCGTCGTCTTCGCGGAGTCACCTAGTGCAG	9210 fluorescence intensity (a.u.)
ATTGAATCCGCCTCTCCGCTCCGCTCCGCTCCTTCCGCTCCGGAGTCACCTAGTGCAG	8140 fluorescence intensity (a.u.)
TAGTTAACGTTAATTTCTGGTCACCCACCTGTTGACTACCCGGAGTCACCTAGTGCAG	8040 fluorescence intensity (a.u.)
AGATTCTTACAACCTAATTATTTTCACTGCATCCATCACACGGAGTCACCTAGTGCAG	10200 fluorescence intensity (a.u.)
TATATAGGGAATTTTCTCTACATCTTACCATGCAGTTTTTCGGAGTCACCTAGTGCAG	8050 fluorescence intensity (a.u.)
GTCCCTCGCCTCCGCTTCCTGATTTTTCTTTTCCCGTTTCCGGAGTCACCTAGTGCAG	11800 fluorescence intensity (a.u.)
